PubChem BioAssay AID1259308, NCATS | 2017

Test: 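Knock-downs that increase output of a recombinant reporter protein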 (primary screen)
Cell system: human HEK293 embryonic kidney cells stably expressing firefly luciferase (HEK-CMV-Luc2-Hygro)
Reagent: single siRNA against human genes, 0.8 pmol siRNA per well
Timing: 72 h
Read-out: 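Luciferase light (ONE-Glo) measured on one replicate plate set and viability (CellTiter-Glo) on the other, scaled to a negative control siRNA, with robust z-scores and luciferase per cell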
Scale: total luciferase, z-score and total luciferase, % of control: higher = more reporter protein produced; luciferase per cell, z-score: higher = more reporter output per viable cell; viable cells, % of control: higher = more viable cells
Call rule: 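Active when the median/MAD z-score for overall luciferase is greater than 3; a gene was taken forward for validation with new siRNAs if at least two of its three siRNAs passed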
Calls: active = raised luciferase; inactive = no rise
Here is one part, drawn at random, of about 59,000 deposited reagents. About 1,510 of all reagents (2.6%) were called active. 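Calls use total luciferase alone and ignore viability, so some active siRNAs may act by altering cell number.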 Reagents against one gene are numbered here.

gene | siRNA no. | total luciferase, z-score | total luciferase, % of control | luciferase per cell, z-score | viable cells, % of control | Outcome
GUCA1A (guanylate cyclase activator 1A) | 1 | -1.46 | 52.9 | -0.295 | 63.8 | inactive
GUCA1A (guanylate cyclase activator 1A) | 2 | 0.854 | 98.9 | 0.701 | 91.9 | inactive
GUCA1A (guanylate cyclase activator 1A) | 3 | -0.655 | 68.9 | -1.25 | 107 | inactive
MMP8 (matrix metallopeptidase 8) | 1 | -0.404 | 73.8 | -0.265 | 88.5 | inactive
MMP8 (matrix metallopeptidase 8) | 2 | -0.3 | 75.9 | -0.715 | 102 | inactive
MMP8 (matrix metallopeptidase 8) | 3 | -2.22 | 37.8 | -2.29 | 77.1 | inactive
LOC401218 (cyclin Q pseudogene) | 1 | -0.698 | 68 | 0.322 | 69.8 | inactive
LOC401218 (cyclin Q pseudogene) | 2 | -0.85 | 65 | -0.238 | 77.3 | inactive
LOC401218 (cyclin Q pseudogene) | 3 | -0.572 | 70.5 | 0.31 | 72.6 | inactive
TRIR (telomerase RNA component interacting RNase) | 1 | -0.294 | 76 | -0.551 | 98.2 | inactive
TRIR (telomerase RNA component interacting RNase) | 2 | 3.15 | 145 | 1.82 | 100 | active
TRIR (telomerase RNA component interacting RNase) | 3 | -0.039 | 81.1 | -0.0714 | 92.4 | inactive

Records listed above called active, once more:
gene | siRNA no. | total luciferase, z-score | total luciferase, % of control | luciferase per cell, z-score | viable cells, % of control | Outcome
TRIR (telomerase RNA component interacting RNase) | 2 | 3.15 | 145 | 1.82 | 100 | active

More results:
gene | siRNA no. | total luciferase, z-score | total luciferase, % of control | luciferase per cell, z-score | viable cells, % of control | Outcome
ZNF410 (zinc finger protein 410) | 1 | -0.163 | 78.6 | -0.592 | 103 | inactive
ZNF410 (zinc finger protein 410) | 2 | -0.414 | 73.7 | -0.281 | 88.6 | inactive
ZNF410 (zinc finger protein 410) | 3 | 1.71 | 116 | 1.13 | 96.2 | inactive
CACNA1H (calcium voltage-gated channel subunit alpha1 H) | 1 | -1.19 | 58.2 | -0.883 | 82 | inactive
CACNA1H (calcium voltage-gated channel subunit alpha1 H) | 2 | 1.52 | 112 | 1.07 | 94.5 | inactive
CACNA1H (calcium voltage-gated channel subunit alpha1 H) | 3 | -0.727 | 67.4 | -0.965 | 97.1 | inactive
SRRD (SRR1 domain containing) | 1 | 0.959 | 101 | 1.11 | 84.3 | inactive
SRRD (SRR1 domain containing) | 2 | -0.959 | 62.8 | -1.15 | 95 | inactive
SRRD (SRR1 domain containing) | 3 | 0.543 | 92.7 | 0.327 | 95 | inactive
CWH43 (cell wall biogenesis 43 C-terminal homolog) | 1 | 0.553 | 92.9 | 0.0987 | 101 | inactive
CWH43 (cell wall biogenesis 43 C-terminal homolog) | 2 | -0.0184 | 81.5 | -0.138 | 94.5 | inactive
CWH43 (cell wall biogenesis 43 C-terminal homolog) | 3 | -0.214 | 77.6 | -0.448 | 97.6 | inactive
